Measurements reported in PubChem BioAssay AID743121 (NCATS, 2013)

Test: 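Genes whose silencing strengthens cell killing by camptothecin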 (primary screen)
System: MDA-MB-231 cells, a human breast cancer line
Reagent: single siRNA against human genes, 20 nM siRNA (0.8 pmol per well)
Duration: 120 h (drug added 48 h after transfection, read 72 h later)
Challenge: camptothecin 20 nM (about EC30) for 72 h; vehicle 0.1% DMSO in parallel plates
Read-out: 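Cell viability by ATP luminescence (CellTiter-Glo) as % of non-targeting siRNA wells, and the log2 ratio of viability without drug over viability with camptothecin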
Direction: log2 vehicle/camptothecin viability: higher = stronger sensitisation to camptothecin; viability with camptothecin and viability without drug: higher = more viable cells
Call rule: 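Active genes have an RSA gene-level p-value below 0.001, computed from the ratios of their separate siRNAs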
The whole screen tested about 26,000 reagents; shown is an unselected part. Of all reagents, 167 (0.63%) were called active. 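Calls are per gene from RSA p-values that are not deposited; an individual active-marked siRNA can sensitise only weakly.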 The numbers tell different reagents against one gene apart.

| Target gene | reagent no. | log2 vehicle/camptothecin viability | viability with camptothecin (% of control) | viability without drug (% of control) | Outcome |
| --- | --- | --- | --- | --- | --- |
| AKR1C4 | 1 | -0.387 | 54.9 | 42 | inactive |
| AKR1C4 | 2 | -0.435 | 95.6 | 70.7 | inactive |
| AKR1C4 | 3 | 0.0459 | 80.1 | 82.7 | inactive |
| FKBP3 | 1 | -0.17 | 91.1 | 81 | inactive |
| FKBP3 | 2 | -0.386 | 76 | 58.1 | inactive |
| FKBP3 | 3 | -0.439 | 46.8 | 34.5 | inactive |
| SPC25 | 1 | -0.875 | 107 | 58.1 | inactive |
| SPC25 | 2 | -0.549 | 84.2 | 57.6 | inactive |
| SPC25 | 3 | 0.0581 | 26.6 | 27.7 | inactive |
| SPC25 | 4 | 0.137 | 82.6 | 90.9 | inactive |
| UNC5B | 1 | -0.112 | 99.3 | 91.9 | inactive |
| UNC5B | 2 | 0.183 | 81.5 | 92.5 | inactive |
| UNC5B | 3 | -0.378 | 87.9 | 67.7 | inactive |
| UNC5B | 4 | -0.0113 | 67.3 | 66.7 | inactive |
| DMC1 | 1 | -0.178 | 131 | 115 | inactive |
| DMC1 | 2 | 0.0639 | 85.5 | 89.4 | inactive |
| DMC1 | 3 | -0.0496 | 76.6 | 74 | inactive |
| DMC1 | 4 | -0.0199 | 89.6 | 88.4 | inactive |
| TSPO | 1 | 0.429 | 80.6 | 108 | inactive |
| TSPO | 2 | -0.276 | 44.2 | 36.5 | inactive |
| TSPO | 3 | 0.582 | 18 | 26.9 | inactive |
| MAPK3 | 1 | -0.131 | 74.1 | 67.7 | inactive |
| MAPK3 | 2 | -0.0343 | 71.3 | 69.6 | inactive |
| MAPK3 | 3 | -0.221 | 88.6 | 76 | inactive |
| MAPK3 | 4 | -0.275 | 85.1 | 70.4 | inactive |
| AKT2 | 1 | -0.147 | 41.1 | 37.1 | inactive |
| AKT2 | 2 | -0.292 | 80.3 | 65.6 | inactive |
| AKT2 | 3 | -0.41 | 71.9 | 54.1 | inactive |
| AKT2 | 4 | -0.137 | 87.5 | 79.5 | inactive |
| LRP2 | 1 | -0.468 | 89.9 | 65 | inactive |
| LRP2 | 2 | -0.304 | 96.4 | 78.1 | inactive |
| LRP2 | 3 | -0.125 | 89.7 | 82.2 | inactive |
| LRP2 | 4 | -0.078 | 91.5 | 86.7 | inactive |
| ASMT | 1 | 0.091 | 85.2 | 90.8 | inactive |
| ASMT | 2 | -0.316 | 84.6 | 68 | inactive |
| ASMT | 3 | -0.277 | 94 | 77.6 | inactive |
| ASMT | 4 | 0.302 | 61.9 | 76.3 | inactive |
| ALDOB | 1 | -0.298 | 75.6 | 61.5 | inactive |
| ALDOB | 2 | 0.317 | 72.2 | 89.9 | inactive |
| ALDOB | 3 | -0.29 | 65.7 | 53.7 | inactive |
| ALDOB | 4 | -0.274 | 100 | 82.8 | inactive |
| CA4 | 1 | -0.233 | 61.9 | 52.6 | inactive |
| CA4 | 2 | -0.0691 | 20.1 | 19.2 | inactive |
| CA4 | 3 | -0.00851 | 44.3 | 44 | inactive |
| KPNB1 | 1 | -0.434 | 24.3 | 17.9 | inactive |
| KPNB1 | 2 | -0.0947 | 37.1 | 34.8 | inactive |
| KPNB1 | 3 | 0.428 | 7.21 | 9.71 | inactive |
| KPNB1 | 4 | -0.323 | 43.9 | 35.1 | inactive |
| CES2 | 1 | 0.132 | 43.2 | 47.3 | inactive |
| CES2 | 2 | -0.334 | 68.4 | 54.3 | inactive |
| CES2 | 3 | -0.048 | 59.1 | 57.1 | inactive |
| CES2 | 4 | 0.0985 | 44.8 | 48 | inactive |
| TRHR | 1 | -0.312 | 99.7 | 80.3 | inactive |
| TRHR | 2 | -0.324 | 145 | 115 | inactive |
| TRHR | 3 | -0.0153 | 69.6 | 68.8 | inactive |
| TRHR | 4 | -0.206 | 78.4 | 68 | inactive |
| TUBG1 | 1 | -0.746 | 72.6 | 43.3 | inactive |
| TUBG1 | 2 | -0.433 | 82.5 | 61.1 | inactive |
| TUBG1 | 3 | -0.313 | 76 | 61.2 | inactive |
| TUBG1 | 4 | -0.0854 | 77.7 | 73.2 | inactive |
| TBXAS1 | 1 | -0.454 | 72.6 | 53 | inactive |
| TBXAS1 | 2 | -0.0505 | 84.2 | 81.4 | inactive |
| TBXAS1 | 3 | -0.387 | 44.6 | 34.1 | inactive |
| TBXAS1 | 4 | -0.247 | 96.3 | 81.1 | inactive |
| MS4A3 | 1 | -0.0961 | 63.1 | 59.1 | inactive |
| MS4A3 | 2 | 0.388 | 48.5 | 63.4 | inactive |
| MS4A3 | 3 | 0.155 | 70.8 | 78.8 | inactive |
| SLC25A15 | 1 | -0.362 | 62.3 | 48.5 | inactive |
| SLC25A15 | 2 | 0.0185 | 78.1 | 79.1 | inactive |
| SLC25A15 | 3 | 0.354 | 76.1 | 97.2 | inactive |

Targets listed so far whose target name starts with C or c:
| Target gene | reagent no. | log2 vehicle/camptothecin viability | viability with camptothecin (% of control) | viability without drug (% of control) | Outcome |
| --- | --- | --- | --- | --- | --- |
| CA4 | 1 | -0.233 | 61.9 | 52.6 | inactive |
| CA4 | 2 | -0.0691 | 20.1 | 19.2 | inactive |
| CA4 | 3 | -0.00851 | 44.3 | 44 | inactive |
| CES2 | 1 | 0.132 | 43.2 | 47.3 | inactive |
| CES2 | 2 | -0.334 | 68.4 | 54.3 | inactive |
| CES2 | 3 | -0.048 | 59.1 | 57.1 | inactive |
| CES2 | 4 | 0.0985 | 44.8 | 48 | inactive |
